Source: PubChem BioAssay AID2685 (National Center for Advancing Translational Sciences (NCATS), 2010)
The list shows a part of the results. These are further read-outs of the screen, such as a control signal, another cell line or another target. No call is given for them. Most of these compounds were active or inconclusive in the main read-out, so they are no random draw. Words in brackets tell the shape of the fitted curve; partial curves, single points and poor fits give uncertain potencies.

Assay: qHTS Assay for Lipid Storage Modulators in Drosophila S3 Cells;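 for cell number change: cells counted by Cell Tracker Red CMTPX staining in the red channel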
Settings: BODIPY lipid droplet fluorescence, 18-24 h; for cell number change: measured here: cell count max response, cells fed with added oleic acid
Outline: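 Drosophila S3 cells loaded with oleic acid (400 uM, as added) and compounds at several concentrations; lipid droplets imaged by 488-nm laser-scanning cytometry, 500–530 nm intensity and object ratio to cell channel. Percent activity normalized to 20 uM Triacsin C.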

[1] = measured here: lipid fluorescence (Fed channel) AC50, cells fed with added oleic acid
[2] = measured here: cell number channel AC50, cells fed with added oleic acid

Row | SMILES | cell number change [%] | AC50 [1] | AC50 [2]
1 | CSc1ncccc1C(=O)N(C)CC(=O)Nc1cccc(F)c1 | 3.17 | 29.1 µM [rising, single point] | 
2 | Cc1ccccc1CNC(=O)C1CCC(=O)N(Cc2cccc(F)c2)C1 (configuration not stated) | -7.37 | 0.58 µM [rising, single point] | 
3 | O=C(O)CNC(=O)/C(=C/c1ccco1)NC(=O)/C=C/c1ccccc1 | 79.5 | 32.6 µM [falling, single point] | 18.4 µM [rising, single point]
4 | CCCCN(C)C1=Nc2cccc3cccc1c23 | -83.1 |  | 14.6 µM [falling, partial curve]
5 | CCOC(=O)C(NC(=O)c1cccc(Cl)c1)(OCc1ccccc1)C(F)(F)F (configuration not stated) | -52.1 | 23.1 µM [falling, single point] | 9.2 µM [falling, partial curve]
6 | Cc1ccc(SCC(=O)Nc2ccc3c(c2)C(=O)N(C)C3=O)cc1 | -6.42 |  | 
7 | COc1ccccc1NC(=O)Nc1nn(C)c2cccc(OC)c12 | -13.9 | 0.92 µM [falling, full curve, poor fit] | 
8 | Cc1c(NC(=O)C(C)OC(=O)c2ccc(NC(=O)CC#N)cc2)c(=O)n(-c2ccccc2)n1C (configuration not stated) | -37.3 |  | 3.26 µM [falling, full curve, poor fit]
9 | COc1ccc(Cc2nnc(SCC(=O)c3ccccc3)o2)cc1 | 55.3 |  | 1.03 µM [rising, full curve]
10 | Cn1cnnc1SCC(=O)c1c(N)n(Cc2ccccc2)c(=O)n(C)c1=O | -40.1 |  | 4.61 µM [falling, full curve, poor fit]
11 | Cc1ccc(C)c(CNS(=O)(=O)c2c(C(=O)N3CCCC3)c(C)n(C)c2C)c1 | -9.39 | 29.1 µM [rising, single point] | 
12 | Cc1ccc(CNC(=O)N2CCN(S(=O)(=O)c3ccccc3)CC2)cc1 | -1.39 | 0.651 µM [falling, partial curve, poor fit] | 
13 | Cc1ccc2cc3c(NC(=O)CC(C)C)nn(C)c3nc2c1 | 5.24 | 7.31 µM [rising, single point] | 
14 | CC(C)(C)C(=O)N1CCN(c2nc3ccc(Br)cc3s2)CC1 | -20.1 |  | 
15 | Cc1c(Cc2ccccc2)c(=O)oc2cc(OCC(=O)NC(Cc3ccc(Cl)cc3)C(=O)O)ccc12 (configuration not stated) | 10 | 29.1 µM [rising, single point] | 
16 | Clc1ccc(N/N=C/c2ccncc2)cc1Cl | -0.612 | 0.82 µM [rising, full curve, poor fit] | 
17 | Cc1ccc(C(=O)N/C(=C\c2ccccc2)C(=O)NCCCn2ccnc2)cc1 | 29.1 | 1.46 µM [rising, partial curve, poor fit] | 
18 | CN(C)CCNC(=O)Cc1ccc([N+](=O)[O-])cc1 | -26.7 | 0.291 µM [falling, full curve] | 
19 | CCc1ccccc1NC(=O)Nc1cnccn1 | 2.08 |  | 
20 | CCSc1nnc(-c2cccnc2)n1Cc1ccco1 | -32.4 |  | 29.1 µM [falling, single point]

Single values from the entries so far:
Entry for CCCCN(C)C1=Nc2cccc3cccc1c23 under cell number change [%]: -83.1
Entry for Cc1c(Cc2ccccc2)c(=O)oc2cc(OCC(=O)NC(Cc3ccc(Cl)cc3)C(=O)O)ccc12 (configuration not stated) under AC50 [1]: 29.1 µM [rising, single point]

Following part:

Row | SMILES | cell number change [%] | AC50 [1] | AC50 [2]
21 | CC(=O)Nc1ccc(NC(=O)c2ccc([N+](=O)[O-])cc2Cl)cc1 | -13.6 | 6.51 µM [rising, partial curve, poor fit] | 6.51 µM [rising, partial curve, poor fit]
22 | CCOC(=O)c1ccccc1Oc1c(F)c(F)nc(NCCO)c1F | -14.9 | 5.8 µM [falling, full curve, poor fit] | 
23 | Cc1cccc(N2CCN(C(=O)CN(C)S(=O)(=O)c3ccc4c(c3)CCC(=O)N4)CC2)c1C | 30.6 |  | 7.31 µM [rising, partial curve, poor fit]
24 | Cc1cccc(NC(=S)N=Nc2c(O)[nH]c3ccccc23)c1 | -28.8 | 11.6 µM [falling, partial curve, poor fit] | 
25 | Cc1ccc(NC2=CC(=O)CC(c3ccc(Cl)cc3)C2)cc1 (configuration not stated) | -6.42 | 3.26 µM [rising, partial curve, poor fit] | 
26 | C/C(=N\Nc1ccc(F)cc1F)c1ccc(N2CCOCC2)cc1 | 7.94 | 1.16 µM [rising, single point] | 
27 | Cc1ccc(/C=N/n2c(C3CCCCC3)n[nH]c2=S)cc1 | -60.9 | 2.06 µM [falling, partial curve] | 13 µM [falling, partial curve]
28 | COc1ccc(C(C)=O)cc1COC(=O)c1cc(=O)c2ccccc2o1 |  | 11.6 µM [falling, partial curve] | 
29 | COc1cc(CNn2cn[nH]c2=S)cc(Cl)c1OCc1ccccc1 | -2 | 25.9 µM [rising, single point] | 
30 | CS(=O)(=O)c1ccc(NC(=O)c2ccccc2-n2cnnn2)cc1 | -2.33 | 0.58 µM [falling, full curve, poor fit] | 
31 | c1ccc2c(-c3cc(C4CCNCC4)[nH]n3)cccc2c1 | -21.1 |  | 
32 | CN(C(=O)C1CCCN(S(=O)(=O)c2cccc([N+](=O)[O-])c2)C1)C1CCS(=O)(=O)C1 (configuration not stated) |  | 4.61 µM [falling, single point] | 
33 | CCOc1ccc(NC(=S)N2CCc3cc(OC)c(OC)cc3C2COc2ccc3c(C)cc(=O)oc3c2)cc1 (configuration not stated) | 27 | 13 µM [rising, partial curve, poor fit] | 
34 | Cc1nnc(SCC(=O)c2ccc(Cl)cc2)s1 |  | 0.00461 µM [falling, partial curve, poor fit] | 
35 | CCc1ccc(C(=O)CSc2ncn[nH]2)cc1 | -2.56 | 4.61 µM [falling, single point] | 
36 | CS(=O)(=O)c1ccccc1-c1nnc(NC(=O)CCS(=O)(=O)c2ccc(Cl)cc2)o1 |  |  | 2.91 µM [falling, single point]
37 | COc1ccc(Cn2c(=O)[nH]c3cc(C(=O)NC4CCCC4)ccc3c2=O)cc1 | 31.3 |  | 1.84 µM [rising, single point]
38 | O=S(=O)(c1ccccc1)C(/C=N\O)/C=C/c1ccccc1 (configuration not stated) | 35.5 |  | 
39 | CCOC(=O)C1CCCN(C(=O)c2cc(-c3ccc(C)cc3)nc3ccccc23)C1 (configuration not stated) | -26.9 |  | 
